Reference: patent US20240199755A1, “ANTAGONISTS AND AGONISTS OF THE TRANSFERRIN RECEPTOR-2 FOR USE IN THE TREATMENT OF DISEASES OF THE BONE” (Kymab Limited, priority 2018, published 2024)
No constants are given. Whether binding was seen depends on the method and setting. Some entries that bind do so weakly or less than the wild type. Where a sequence is shown, tags or fusion partners need not be part of it.

Experiments:
[1] = target: T1, Tfr2 extracellular domain (Tfr2-ECD), murine, aa 103-798, recombinant His-tagged (mouse) (UniProt Q9JKX3); assay: SPR, Tfr2-ECD immobilised, BMP receptors 200 nM as analytes
T1 sequence: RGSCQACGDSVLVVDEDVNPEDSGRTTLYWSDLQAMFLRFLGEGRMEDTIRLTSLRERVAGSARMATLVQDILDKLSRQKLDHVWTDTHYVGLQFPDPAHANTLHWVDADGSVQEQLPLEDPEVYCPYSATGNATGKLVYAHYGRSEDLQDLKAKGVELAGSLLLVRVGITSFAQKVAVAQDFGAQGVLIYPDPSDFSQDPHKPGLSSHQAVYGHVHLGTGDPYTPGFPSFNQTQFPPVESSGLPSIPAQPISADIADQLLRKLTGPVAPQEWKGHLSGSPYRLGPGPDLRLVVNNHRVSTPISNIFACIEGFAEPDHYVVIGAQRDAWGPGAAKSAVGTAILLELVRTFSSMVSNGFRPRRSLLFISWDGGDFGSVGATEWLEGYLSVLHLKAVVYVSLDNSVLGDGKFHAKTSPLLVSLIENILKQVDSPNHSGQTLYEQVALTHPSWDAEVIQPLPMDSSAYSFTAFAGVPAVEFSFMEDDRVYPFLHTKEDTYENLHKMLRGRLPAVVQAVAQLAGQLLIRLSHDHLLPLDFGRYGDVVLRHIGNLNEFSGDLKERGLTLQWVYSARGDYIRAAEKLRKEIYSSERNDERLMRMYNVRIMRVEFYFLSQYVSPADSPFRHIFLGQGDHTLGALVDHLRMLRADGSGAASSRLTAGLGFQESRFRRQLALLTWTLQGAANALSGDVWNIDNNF

[2] = target: T1, Tfr2 extracellular domain (Tfr2-ECD), murine, aa 103-798, recombinant His-tagged (mouse); assay: SPR, Tfr2-ECD immobilised, BMPR-II at 200 nM as analyte [panel i]
[3] = target: T1, Tfr2 extracellular domain (Tfr2-ECD), murine, aa 103-798, recombinant His-tagged (mouse); assay: SPR binding level normalised to molecular weight, Tfr2-ECD immobilised, BMP receptor 200 nM [panel a]
[4] = target: T1, Tfr2 extracellular domain (Tfr2-ECD), murine, aa 103-798, recombinant His-tagged (mouse); assay: SPR binding level normalised to molar mass, Tfr2-ECD immobilised, BMP receptor 200 nM

Measured: binding

B1: BMPR-II (BMP receptor, R&D Systems) (receptor)
chain: SQNQERLCAFKDPYQQDLGIGESRISHENGTILCSKGSTCYGLWEKSKGDINLVKQGCWSHIGDPQECHYEECVVTTTPPSIQNGTYRFCCCSTDLCNVNFTENFPPPDTTPLSPPHSFNRDET
binds: [1] | [2] | [3] | [4]
